Test results: the supplement of paper PMC8728848
Some of the results follow.

Key:
Test in all cases: glycan array binding signal (z-score within array); higher = stronger binding
Settings in all cases: glycan notation: IUPAC condensed, linker removed
[1] = target: Fuc(a1-2)[GalNAc(a1-3)]Gal(b1-4)[Fuc(a1-3)]GlcNAc
In short: (§1)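 Columns mapping to the same glycan were averaged after glycan names were converted to IUPAC-condensed notation. The data come from 3228 arrays in the Consortium for Functional Glycomics database, limited to those with an available protein sequence. Binding is reported as a within-array Z-score averaged across arrays of one protein sequence and across linkers.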

[2] = target: Fuc(a1-2)[GalNAc(a1-4)]Gal(b1-4)GlcNAc
In short: as §1

[3] = target: Fuc(a1-2)[GalNAc(b1-3)]Gal
In short: as §1

Fuc(a1-3)GlcNAc = target: Fuc(a1-3)GlcNAc
In short: as §1

[4] = target: Fuc(a1-3)[Gal(b1-4)]Glc6S
In short: as §1

[5] = target: Fuc(a1-3)[Gal(b1-4)]GlcNAc
In short: as §1

[6] = target: Fuc(a1-3)[Gal(b1-4)]GlcNAc(b1-3)Gal(b1-3)[Fuc(a1-4)]GlcNAc
In short: as §1

[7] = target: Fuc(a1-3)[Gal(b1-4)]GlcNAc(b1-4)Gal(b1-4)[Fuc(a1-3)]GlcNAc
In short: as §1

[8] = target: Fuc(a1-3)[Gal(b1-4)]GlcNAc(b1-4)Gal(b1-4)[Fuc(a1-3)]GlcNAc(b1-4)Gal(b1-4)[Fuc(a1-3)]GlcNAc
In short: as §1

[9] = target: Fuc(a1-3)[Gal(b1-4)]GlcNAc6S
In short: as §1

[10] = target: Fuc(a1-3)[Gal3S(b1-4)]Glc6S
In short: as §1

[11] = target: Fuc(a1-3)[Gal3S(b1-4)]GlcNAc
In short: as §1

[12] = target: Fuc(a1-3)[Gal3S(b1-4)]GlcNAc6S
In short: as §1

[13] = target: Fuc(a1-3)[GalNAc(b1-4)]GlcNAc
In short: as §1

Fuc(a1-4)GlcNAc = target: Fuc(a1-4)GlcNAc
In short: as §1

Fuc(b1-3)GlcNAc = target: Fuc(b1-3)GlcNAc
In short: as §1

Gal(a1-2)Gal = target: Gal(a1-2)Gal
In short: as §1

Gal(a1-3)Gal = target: Gal(a1-3)Gal
In short: as §1

Gal(a1-3)Gal(b1-3)GlcNAc = target: Gal(a1-3)Gal(b1-3)GlcNAc
In short: as §1

Gal(a1-3)Gal(b1-4)Glc = target: Gal(a1-3)Gal(b1-4)Glc
In short: as §1

Gal(a1-3)Gal(b1-4)GlcNAc = target: Gal(a1-3)Gal(b1-4)GlcNAc
In short: as §1

[14] = target: Gal(a1-3)Gal(b1-4)[Fuc(a1-3)]GlcNAc
In short: as §1

Gal(a1-3)GalNAc = target: Gal(a1-3)GalNAc
In short: as §1

[15] = target: Gal(a1-3)[Gal(a1-4)]Gal(b1-4)GlcNAc
In short: as §1

Gal(a1-4)Gal(b1-4)Glc = target: Gal(a1-4)Gal(b1-4)Glc
In short: as §1

Gal(a1-4)Gal(b1-4)GlcNAc = target: Gal(a1-4)Gal(b1-4)GlcNAc
In short: as §1

Gal(a1-4)GlcNAc = target: Gal(a1-4)GlcNAc
In short: as §1

Gal(a1-6)Glc = target: Gal(a1-6)Glc
In short: as §1

Gal(b1-2)Gal = target: Gal(b1-2)Gal
In short: as §1

Gal(b1-3)Gal = target: Gal(b1-3)Gal
In short: as §1

Gal(b1-3)GalNAc = target: Gal(b1-3)GalNAc
In short: as §1

[16] = target: Gal(b1-3)GalNAc(b1-3)Gal(a1-4)Gal(b1-4)Glc
In short: as §1

[17] = target: Gal(b1-3)GalNAc(b1-4)Gal(b1-4)Glc
In short: as §1

[18] = target: Gal(b1-3)GalNAc(b1-4)[Neu5Ac(a2-3)]Gal(b1-4)Glc
In short: as §1

Gal(b1-3)GlcNAc = target: Gal(b1-3)GlcNAc
In short: as §1

[19] = target: Gal(b1-3)GlcNAc(b1-3)Gal(b1-3)GlcNAc
In short: as §1

[20] = target: Gal(b1-3)GlcNAc(b1-3)Gal(b1-4)Glc
In short: as §1

[21] = target: Gal(b1-3)GlcNAc(b1-3)Gal(b1-4)GlcNAc
In short: as §1

[22] = target: Gal(b1-3)[Fuc(a1-4)]GlcNAc
In short: as §1

[23] = target: Gal(b1-3)[Fuc(a1-4)]GlcNAc(b1-3)Gal(b1-3)[Fuc(a1-4)]GlcNAc
In short: as §1

[24] = target: Gal(b1-3)[Fuc(a1-4)]GlcNAc(b1-3)Gal(b1-4)GlcNAc
In short: as §1

[25] = target: Gal(b1-3)[Fuc(a1-4)]GlcNAc(b1-3)Gal(b1-4)[Fuc(a1-3)]GlcNAc
In short: as §1

[26] = target: Gal(b1-3)[GlcNAc(b1-6)]GalNAc
In short: as §1

[27] = target: Gal(b1-3)[Neu5Ac(a2-6)]GalNAc
In short: as §1

[28] = target: Gal(b1-3)[Neu5Ac(a2-6)]GlcNAc(b1-6)Gal(b1-4)Glc
In short: as §1

B1: CD23 (Homo sapiens) (protein)
chain: MELQVSSGFVCNTCPEKWINFQRKCYYFGKGTKQWVHARYACDDMEGQLVSIHSPEEQDFLTKHASHTGSWIGLRNLDLKGEFIWVDGSHVDYSNWAPGEPTSRSQGEDCVMMRGSGRWNDAFCDRKLGAWVCDRLATCTPPASEGSAESMGPDSRPDPDGRLPTPSAPLHS
- glycan array binding signal (z-score) [1]: 0.752
- glycan array binding signal (z-score) [2]: -0.016
- glycan array binding signal (z-score) [3]: -0.2
- glycan array binding signal (z-score) (Fuc(a1-3)GlcNAc): -0.219
- glycan array binding signal (z-score) [4]: -0.338
- glycan array binding signal (z-score) [5]: -0.062
- glycan array binding signal (z-score) [6]: 0.5
- glycan array binding signal (z-score) [7]: 0.351
- glycan array binding signal (z-score) [8]: -0.356
- glycan array binding signal (z-score) [9]: 0.387
- glycan array binding signal (z-score) [10]: 2.25
- glycan array binding signal (z-score) [11]: -0.269
- glycan array binding signal (z-score) [12]: 0.491
- glycan array binding signal (z-score) [13]: -0.133
- glycan array binding signal (z-score) (Fuc(a1-4)GlcNAc): -0.822
- glycan array binding signal (z-score) (Fuc(b1-3)GlcNAc): -0.265
- glycan array binding signal (z-score) (Gal(a1-2)Gal): -0.046
- glycan array binding signal (z-score) (Gal(a1-3)Gal): 0.248
- glycan array binding signal (z-score) (Gal(a1-3)Gal(b1-3)GlcNAc): -0.173
- glycan array binding signal (z-score) (Gal(a1-3)Gal(b1-4)Glc): 0.401
- glycan array binding signal (z-score) (Gal(a1-3)Gal(b1-4)GlcNAc): 0.334
- glycan array binding signal (z-score) [14]: 0.748
- glycan array binding signal (z-score) (Gal(a1-3)GalNAc): -0.248
- glycan array binding signal (z-score) [15]: 0.074
- glycan array binding signal (z-score) (Gal(a1-4)Gal(b1-4)Glc): 0.283
- glycan array binding signal (z-score) (Gal(a1-4)Gal(b1-4)GlcNAc): 0.223
- glycan array binding signal (z-score) (Gal(a1-4)GlcNAc): -0.066
- glycan array binding signal (z-score) (Gal(a1-6)Glc): 0.204
- glycan array binding signal (z-score) (Gal(b1-2)Gal): -0.283
- glycan array binding signal (z-score) (Gal(b1-3)Gal): -0.614
- glycan array binding signal (z-score) (Gal(b1-3)GalNAc): -0.398
- glycan array binding signal (z-score) [16]: -0.549
- glycan array binding signal (z-score) [17]: -0.307
- glycan array binding signal (z-score) [18]: -0.259
- glycan array binding signal (z-score) (Gal(b1-3)GlcNAc): -0.084
- glycan array binding signal (z-score) [19]: -0.335
- glycan array binding signal (z-score) [20]: -0.654
- glycan array binding signal (z-score) [21]: -0.512
- glycan array binding signal (z-score) [22]: -0.095
- glycan array binding signal (z-score) [23]: 0.311
- glycan array binding signal (z-score) [24]: -0.479
- glycan array binding signal (z-score) [25]: -0.3
- glycan array binding signal (z-score) [26]: -0.163
- glycan array binding signal (z-score) [27]: -0.376
- glycan array binding signal (z-score) [28]: -0.382
